Construct, isoform or probe ends are uncertain for at least one entry. Results from cells or extracts need not show a direct contact. For some assays here: A negative result means that nothing was seen under these conditions.
Experiments:
GATA-1 [1] = molecular target: GATA-1 (UniProt P15976); test: EMSA; details: LightShift Chemiluminescent EMSA Kit (Pierce) per manufacturer, K562 nuclear extract, 6% nondenaturing PAGE, pH and temperature not stated, protein in an extract, label: 3' biotin (both strands)
GATA-1 [2] = molecular target: GATA-1 (UniProt P15976); test: competition with a labelled probe; details: LightShift Chemiluminescent EMSA Kit (Pierce) per manufacturer, K562 nuclear extract, 6% nondenaturing PAGE, pH and temperature not stated, protein in an extract, label: 3' biotin (both strands), unlabeled as competitor
GATA-1 [3] = molecular target: GATA-1 (UniProt P15976); test: EMSA supershift; details: anti-GATA-1 antibody; LightShift Chemiluminescent EMSA Kit (Pierce) per manufacturer; K562 nuclear extract; 6% nondenaturing PAGE; pH and temperature not …; protein in an extract; label: 3' biotin (both strands), unlabeled as competitor

Amino acid sequences for entries named in this document (tags omitted). A change or cut given only in a name is not applied to a line headed by its entry.
UniProt P15976: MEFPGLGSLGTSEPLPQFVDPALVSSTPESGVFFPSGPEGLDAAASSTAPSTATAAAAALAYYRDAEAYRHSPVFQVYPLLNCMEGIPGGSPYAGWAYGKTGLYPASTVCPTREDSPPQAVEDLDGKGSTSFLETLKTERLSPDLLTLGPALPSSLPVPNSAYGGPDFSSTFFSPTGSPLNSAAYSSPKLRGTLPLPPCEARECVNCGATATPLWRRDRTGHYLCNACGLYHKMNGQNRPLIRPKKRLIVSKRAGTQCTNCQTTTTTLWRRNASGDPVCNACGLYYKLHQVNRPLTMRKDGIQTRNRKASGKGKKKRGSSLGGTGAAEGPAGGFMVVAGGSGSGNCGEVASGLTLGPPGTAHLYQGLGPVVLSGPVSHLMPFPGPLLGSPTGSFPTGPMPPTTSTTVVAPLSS

Sequence | binding result (GATA-1 [1]) | also measured
AAAGAGATAGGCGAGTACATCAGTC (double strand) [G1-m] | – | binding result (GATA-1 [1]; unlabeled as competitor): no binding; binding result (GATA-1 [2]; 200-fold unlabeled G1-m against labeled G1): no binding
AAAGAGATATTATCTTACATCAGTC (double strand) [G1] | – | binding result (GATA-1 [3]): binds; binding result (GATA-1 [2]; 200-fold unlabeled G1 competes labeled G1): binds
AATCATGCGTGATAAAAGAATCCAT (double strand) [G8] | no binding | –
AGAAAACTTGTATCTGCCTCTGTGA (double strand) [G7] | no binding | –
AGTGTGGGATGATAGACAATGAAGA (double strand) [G6] | no binding | –
ATTACCATTTGATAAAGCAATCCTG (double strand) [G2] | no binding | –
CTAACAAAACTATCCCTTGTTCGAC (double strand) [G9] | no binding | –
CTCATATGTTTATCACAGCACTATT (double strand) [G4] | no binding | –
TAGTGGCCACTATCTTCAGTGAAAC (double strand) [G5] | no binding | –
TGTTACTGAGTATCTACCCAAAGGA (double strand) [G3] | no binding | –
TGTTCGACTTGTATCTTTATATACT (double strand) [G10] | no binding | –
TTGTTCCTCAGATAGCGTTCATCGC (double strand) [G11] | no binding | –
